Source: the supplement of paper PMC10849652
The other results are listed elsewhere or left out.

By UniProt entry, the sequences of proteins in these tests, tags left out. Where a name states a change or a piece, a line headed by the entry shows the natural chain unless it says otherwise.
UniProt O15127: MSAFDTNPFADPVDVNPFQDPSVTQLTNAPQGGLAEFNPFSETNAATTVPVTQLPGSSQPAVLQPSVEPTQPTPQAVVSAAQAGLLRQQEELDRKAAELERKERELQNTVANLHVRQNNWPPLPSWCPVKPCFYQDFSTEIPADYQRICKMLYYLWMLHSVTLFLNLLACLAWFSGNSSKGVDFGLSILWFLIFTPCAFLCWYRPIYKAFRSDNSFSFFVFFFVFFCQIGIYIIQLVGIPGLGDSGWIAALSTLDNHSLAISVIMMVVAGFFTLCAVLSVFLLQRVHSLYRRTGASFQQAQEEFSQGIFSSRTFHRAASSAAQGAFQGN
UniProt Q9Y512: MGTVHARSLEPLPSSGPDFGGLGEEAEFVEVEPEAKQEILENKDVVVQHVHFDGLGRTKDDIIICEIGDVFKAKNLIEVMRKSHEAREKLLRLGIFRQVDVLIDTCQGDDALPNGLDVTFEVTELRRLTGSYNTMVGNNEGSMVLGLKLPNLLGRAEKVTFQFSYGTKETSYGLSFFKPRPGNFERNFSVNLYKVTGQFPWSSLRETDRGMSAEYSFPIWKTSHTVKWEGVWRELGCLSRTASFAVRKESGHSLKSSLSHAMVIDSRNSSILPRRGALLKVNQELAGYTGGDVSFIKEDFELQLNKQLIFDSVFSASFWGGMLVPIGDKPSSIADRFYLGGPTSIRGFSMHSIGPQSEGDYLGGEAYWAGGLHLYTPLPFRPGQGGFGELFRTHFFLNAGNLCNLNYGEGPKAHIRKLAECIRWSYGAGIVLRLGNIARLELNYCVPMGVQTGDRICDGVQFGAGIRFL
UniProt Q6UVJ0: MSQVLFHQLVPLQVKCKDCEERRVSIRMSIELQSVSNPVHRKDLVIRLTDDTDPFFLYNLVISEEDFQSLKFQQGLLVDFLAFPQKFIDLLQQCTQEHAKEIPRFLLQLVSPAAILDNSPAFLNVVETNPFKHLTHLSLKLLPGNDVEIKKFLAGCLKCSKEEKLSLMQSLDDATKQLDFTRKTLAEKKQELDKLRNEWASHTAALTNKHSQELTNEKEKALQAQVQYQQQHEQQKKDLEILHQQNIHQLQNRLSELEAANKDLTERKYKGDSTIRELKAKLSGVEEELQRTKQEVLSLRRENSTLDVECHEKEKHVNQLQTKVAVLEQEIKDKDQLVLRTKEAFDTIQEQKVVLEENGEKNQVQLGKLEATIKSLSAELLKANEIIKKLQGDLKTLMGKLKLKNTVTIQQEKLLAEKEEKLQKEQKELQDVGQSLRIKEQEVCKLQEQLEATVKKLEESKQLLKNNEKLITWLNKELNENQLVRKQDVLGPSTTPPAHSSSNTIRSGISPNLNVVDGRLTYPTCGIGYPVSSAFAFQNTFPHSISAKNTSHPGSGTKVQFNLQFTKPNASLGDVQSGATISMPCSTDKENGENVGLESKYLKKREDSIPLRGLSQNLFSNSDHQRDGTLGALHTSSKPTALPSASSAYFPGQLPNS
UniProt P67812: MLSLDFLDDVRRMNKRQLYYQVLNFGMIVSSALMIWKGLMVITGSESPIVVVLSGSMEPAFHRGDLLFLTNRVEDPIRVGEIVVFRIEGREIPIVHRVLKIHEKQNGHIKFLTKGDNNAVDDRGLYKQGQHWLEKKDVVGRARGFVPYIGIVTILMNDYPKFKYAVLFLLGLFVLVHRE
UniProt Q96HI0: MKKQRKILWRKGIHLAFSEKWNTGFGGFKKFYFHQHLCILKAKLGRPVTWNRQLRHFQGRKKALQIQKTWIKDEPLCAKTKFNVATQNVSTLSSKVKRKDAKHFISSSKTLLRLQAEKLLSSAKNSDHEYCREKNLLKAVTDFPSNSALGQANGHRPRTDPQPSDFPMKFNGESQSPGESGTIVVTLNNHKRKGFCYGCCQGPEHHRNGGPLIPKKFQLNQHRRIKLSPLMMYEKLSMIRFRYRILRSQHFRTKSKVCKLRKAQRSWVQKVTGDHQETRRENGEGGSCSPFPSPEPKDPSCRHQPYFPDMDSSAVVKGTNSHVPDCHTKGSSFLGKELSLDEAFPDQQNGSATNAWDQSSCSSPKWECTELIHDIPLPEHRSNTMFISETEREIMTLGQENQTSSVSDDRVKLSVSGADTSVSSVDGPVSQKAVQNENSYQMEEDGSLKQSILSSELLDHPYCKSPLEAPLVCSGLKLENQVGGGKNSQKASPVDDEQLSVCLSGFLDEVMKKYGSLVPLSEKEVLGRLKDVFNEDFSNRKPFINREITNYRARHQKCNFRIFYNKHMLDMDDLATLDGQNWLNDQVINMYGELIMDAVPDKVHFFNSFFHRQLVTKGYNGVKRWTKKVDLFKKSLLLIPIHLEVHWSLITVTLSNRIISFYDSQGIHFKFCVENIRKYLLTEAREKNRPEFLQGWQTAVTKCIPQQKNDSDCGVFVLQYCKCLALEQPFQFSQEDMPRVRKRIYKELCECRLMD
UniProt P22307: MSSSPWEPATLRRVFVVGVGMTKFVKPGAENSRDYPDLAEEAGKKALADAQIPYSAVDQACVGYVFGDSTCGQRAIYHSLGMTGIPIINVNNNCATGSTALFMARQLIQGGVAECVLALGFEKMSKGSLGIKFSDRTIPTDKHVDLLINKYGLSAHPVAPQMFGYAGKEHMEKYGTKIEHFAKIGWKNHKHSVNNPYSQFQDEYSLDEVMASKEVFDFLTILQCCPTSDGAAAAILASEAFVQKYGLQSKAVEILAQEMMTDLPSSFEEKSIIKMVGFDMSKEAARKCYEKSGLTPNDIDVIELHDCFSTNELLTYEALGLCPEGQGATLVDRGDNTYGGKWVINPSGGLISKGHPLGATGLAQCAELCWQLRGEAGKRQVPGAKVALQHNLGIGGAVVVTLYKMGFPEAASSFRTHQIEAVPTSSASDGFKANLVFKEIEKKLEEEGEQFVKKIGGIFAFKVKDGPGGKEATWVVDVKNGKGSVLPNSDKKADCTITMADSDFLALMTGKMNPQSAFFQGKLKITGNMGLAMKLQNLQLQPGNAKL
UniProt Q9NR31: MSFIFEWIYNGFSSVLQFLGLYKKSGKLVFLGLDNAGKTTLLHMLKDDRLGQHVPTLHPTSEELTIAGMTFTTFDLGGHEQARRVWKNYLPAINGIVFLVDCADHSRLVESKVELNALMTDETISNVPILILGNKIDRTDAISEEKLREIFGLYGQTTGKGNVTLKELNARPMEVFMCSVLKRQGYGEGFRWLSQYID
UniProt Q9C0C4, whole entry, looked up: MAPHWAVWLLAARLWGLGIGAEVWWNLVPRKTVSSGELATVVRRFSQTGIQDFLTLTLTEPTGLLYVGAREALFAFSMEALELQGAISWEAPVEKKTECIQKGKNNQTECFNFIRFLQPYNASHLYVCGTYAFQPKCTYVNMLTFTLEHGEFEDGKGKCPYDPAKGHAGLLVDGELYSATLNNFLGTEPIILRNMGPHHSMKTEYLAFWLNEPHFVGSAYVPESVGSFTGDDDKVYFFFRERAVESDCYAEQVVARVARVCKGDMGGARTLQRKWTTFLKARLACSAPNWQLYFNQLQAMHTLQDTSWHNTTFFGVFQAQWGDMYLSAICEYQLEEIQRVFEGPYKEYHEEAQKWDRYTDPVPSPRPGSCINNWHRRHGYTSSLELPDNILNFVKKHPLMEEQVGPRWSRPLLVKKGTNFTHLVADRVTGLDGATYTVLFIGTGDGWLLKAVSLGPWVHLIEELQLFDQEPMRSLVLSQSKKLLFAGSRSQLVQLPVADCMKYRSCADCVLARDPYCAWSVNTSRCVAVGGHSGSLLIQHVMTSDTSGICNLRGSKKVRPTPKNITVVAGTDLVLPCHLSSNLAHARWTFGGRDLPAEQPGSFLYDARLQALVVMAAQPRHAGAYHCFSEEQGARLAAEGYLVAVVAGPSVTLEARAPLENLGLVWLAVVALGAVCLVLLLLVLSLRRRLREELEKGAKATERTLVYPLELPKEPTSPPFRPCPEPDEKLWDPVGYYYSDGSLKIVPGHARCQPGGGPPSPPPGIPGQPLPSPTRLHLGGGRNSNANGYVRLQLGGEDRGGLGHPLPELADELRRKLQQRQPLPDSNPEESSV
UniProt Q15019: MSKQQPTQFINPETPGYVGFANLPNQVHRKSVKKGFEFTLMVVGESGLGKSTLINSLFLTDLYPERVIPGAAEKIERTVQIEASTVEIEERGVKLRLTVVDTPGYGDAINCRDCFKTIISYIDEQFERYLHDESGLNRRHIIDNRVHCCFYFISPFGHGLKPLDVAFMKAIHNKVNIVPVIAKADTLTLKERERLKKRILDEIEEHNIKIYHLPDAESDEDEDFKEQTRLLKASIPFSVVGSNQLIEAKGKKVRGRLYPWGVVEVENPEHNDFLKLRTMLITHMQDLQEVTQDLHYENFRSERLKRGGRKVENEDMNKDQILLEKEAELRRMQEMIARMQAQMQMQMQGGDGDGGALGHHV
UniProt O75396: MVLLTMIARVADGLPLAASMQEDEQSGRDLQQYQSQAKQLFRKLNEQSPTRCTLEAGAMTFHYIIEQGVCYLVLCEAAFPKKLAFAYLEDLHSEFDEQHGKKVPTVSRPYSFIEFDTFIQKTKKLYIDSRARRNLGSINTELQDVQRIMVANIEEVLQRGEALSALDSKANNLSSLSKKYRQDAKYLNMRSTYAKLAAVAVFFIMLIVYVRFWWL
UniProt Q8NBX0: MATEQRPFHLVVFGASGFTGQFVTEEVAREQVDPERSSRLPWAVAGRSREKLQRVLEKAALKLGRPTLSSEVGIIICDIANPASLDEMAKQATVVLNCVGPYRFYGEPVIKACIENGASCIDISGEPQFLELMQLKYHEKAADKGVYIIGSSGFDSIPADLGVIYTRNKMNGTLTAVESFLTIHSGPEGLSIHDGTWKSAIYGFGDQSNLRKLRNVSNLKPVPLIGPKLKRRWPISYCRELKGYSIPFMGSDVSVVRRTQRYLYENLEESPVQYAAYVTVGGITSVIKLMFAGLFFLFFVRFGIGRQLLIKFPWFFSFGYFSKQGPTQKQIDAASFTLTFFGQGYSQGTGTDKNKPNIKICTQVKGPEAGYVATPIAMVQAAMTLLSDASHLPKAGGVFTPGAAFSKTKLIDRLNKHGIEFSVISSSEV
UniProt Q9NRP4: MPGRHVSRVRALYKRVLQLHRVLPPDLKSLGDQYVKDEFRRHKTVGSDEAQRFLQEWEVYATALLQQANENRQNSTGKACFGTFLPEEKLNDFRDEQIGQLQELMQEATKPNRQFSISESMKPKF
UniProt O00560: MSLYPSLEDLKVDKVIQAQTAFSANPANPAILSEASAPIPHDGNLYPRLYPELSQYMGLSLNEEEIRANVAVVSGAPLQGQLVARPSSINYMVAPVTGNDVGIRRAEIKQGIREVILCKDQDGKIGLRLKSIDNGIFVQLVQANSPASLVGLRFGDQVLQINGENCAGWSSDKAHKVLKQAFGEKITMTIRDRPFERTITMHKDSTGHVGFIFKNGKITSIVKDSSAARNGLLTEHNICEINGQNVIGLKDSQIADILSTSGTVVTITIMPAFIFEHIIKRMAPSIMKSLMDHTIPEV
UniProt Q5PRF9: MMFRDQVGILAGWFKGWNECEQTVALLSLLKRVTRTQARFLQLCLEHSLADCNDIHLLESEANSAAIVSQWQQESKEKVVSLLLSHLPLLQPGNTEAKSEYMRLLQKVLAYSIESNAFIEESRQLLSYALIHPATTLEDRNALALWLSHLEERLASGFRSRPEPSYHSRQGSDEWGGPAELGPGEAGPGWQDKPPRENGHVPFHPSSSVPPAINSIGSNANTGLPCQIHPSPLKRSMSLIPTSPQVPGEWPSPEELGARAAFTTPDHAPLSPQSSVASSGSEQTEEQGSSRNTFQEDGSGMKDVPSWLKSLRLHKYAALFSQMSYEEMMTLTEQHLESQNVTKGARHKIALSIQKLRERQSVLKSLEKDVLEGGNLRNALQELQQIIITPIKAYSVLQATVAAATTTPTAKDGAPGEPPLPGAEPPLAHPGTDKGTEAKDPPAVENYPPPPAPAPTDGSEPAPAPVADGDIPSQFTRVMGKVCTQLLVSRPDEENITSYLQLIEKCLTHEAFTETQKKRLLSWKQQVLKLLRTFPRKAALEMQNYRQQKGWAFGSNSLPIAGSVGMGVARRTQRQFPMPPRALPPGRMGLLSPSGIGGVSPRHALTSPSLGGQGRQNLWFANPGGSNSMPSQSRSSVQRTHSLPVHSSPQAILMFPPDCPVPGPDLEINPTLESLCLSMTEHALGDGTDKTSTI
UniProt Q13228: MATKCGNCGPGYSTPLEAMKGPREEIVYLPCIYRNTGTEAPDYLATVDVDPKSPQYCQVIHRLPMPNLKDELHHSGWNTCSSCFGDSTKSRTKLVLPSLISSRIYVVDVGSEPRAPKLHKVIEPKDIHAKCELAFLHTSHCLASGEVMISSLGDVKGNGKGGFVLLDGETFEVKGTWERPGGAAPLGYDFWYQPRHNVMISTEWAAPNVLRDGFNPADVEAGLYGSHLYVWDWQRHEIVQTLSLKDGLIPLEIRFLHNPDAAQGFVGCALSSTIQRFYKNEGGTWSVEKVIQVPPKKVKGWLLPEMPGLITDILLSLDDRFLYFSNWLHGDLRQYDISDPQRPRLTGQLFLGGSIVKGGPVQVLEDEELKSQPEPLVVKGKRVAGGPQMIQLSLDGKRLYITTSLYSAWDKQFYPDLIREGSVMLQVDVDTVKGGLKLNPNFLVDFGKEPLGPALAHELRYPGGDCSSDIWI

Tests used:
Assay in all cases: log2 fold change, soluble protein after heating vs DMSO (PISA); higher = thermal stabilisation; K562 lysate, 10 uM; active = over 0.2 and 3.5 SD of the protein, either way, in both replicates (recomputed)
erlotinib = compound: C#Cc1cccc(Nc2ncnc3cc(OCCOC)c(OCCOC)cc23)c1 [erlotinib]
Procedure, shortened: (§1)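 K562 pellets were dounce-homogenised in PBS pH 7.4 with 1 mM MgCl2, and the crude extract at 1 mg/mL protein was treated with 10 μM compound for 30 min. Aliquots were heated for 3 min across 48°C-58°C, pooled, and brought to 0.5% NP-40 at 4°C; soluble protein was the supernatant after 21,000xg for 90 min. Soluble protein was quantified by TMTpro 16plex LC-MS/MS with channel sums equalised, and reported as log2 fold change in thermal stability against DMSO controls, with values from duplicates.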

[1] = compound: C/C(=N\NC(=O)C1=CC(=CC=C1)S(=O)(=O)N2CCOCC2)/C3=C(C=CC(=C3)Cl)O
Procedure, shortened: as §1

[2] = compound: C1=CC(=CC=C1C2=NC3=C(N2)C=C(C=C3)C(=O)N)OC4=CC=C(C=C4)Cl
Procedure, shortened: as §1

[3] = compound: C1=CC2=C(C=CC(=C2)/C=C\3/C(=O)NC(=NCC4=CC=CS4)S3)N=C1
Procedure, shortened: as §1

[4] = compound: C1=CC2=NC=CN=C2C=C1/C=C/3\C(=O)NC(=O)S3
Procedure, shortened: as §1

[5] = compound: C1=CC=C(C=C1)C2=NC(=C(N2)C3=CC=NC=C3)C4=CC(=C(C=C4)Cl)O
Procedure, shortened: as §1

[6] = compound: C1=CC=C2C(=C1)C3=NNC4=CC=CC(=C43)C2=O
Procedure, shortened: as §1

[7] = compound: C1CCN(C1)C(=O)NC2=CC=CC(=C2)NC3=NC=C(C(=N3)NCCC4=CN=CN4)Br
Procedure, shortened: as §1

[8] = compound: C1CN(CCC1(CC2=CC=C(C=C2)Cl)N)C3=NC=NC4=C3C=CN4
Procedure, shortened: as §1

IRAK-1-4 Inhibitor I = compound: C1COCCN1CCN2C3=CC=CC=C3N=C2NC(=O)C4=CC(=CC=C4)[N+](=O)[O-] [IRAK-1-4 Inhibitor I]
Procedure, shortened: as §1

ibrutinib = compound: C=CC(=O)N1CCC[C@@H](n2nc(-c3ccc(Oc4ccccc4)cc3)c3c(N)ncnc32)C1 [ibrutinib]
Procedure, shortened: as §1

[9] = compound: CC(=O)c1cnc2ccc(-c3cc(Cl)c(O)c(Cl)c3)nc2c1N[C@H]1CC[C@H](CN(C)C)CC1
Procedure, shortened: as §1

ralimetinib = compound: CC(C)(C)Cn1c(N)nc2ccc(-c3[nH]c(C(C)(C)C)nc3-c3ccc(F)cc3)nc21 [ralimetinib]
Procedure, shortened: as §1

[10] = compound: CC(C)(O)CC(=O)NCCn1ccc2ncnc(Nc3ccc(Oc4cccc(C(F)(F)F)c4)c(Cl)c3)c21
Procedure, shortened: as §1

[11] = compound: CC(C)C1=C2N=C(C=C(N2N=C1)NCC3=CC=CC=C3)NCCCCCCN
Procedure, shortened: as §1

[12] = compound: CC1=C(C(CC(=O)N1)C2=CC=C(C=C2)C(F)(F)F)C(=O)NC3=C(C=C4C(=C3)C=NN4)F
Procedure, shortened: as §1

[13] = compound: CC1=C(C2=C(C=C1)C(=O)C3=CC=CC=C3N2CCCN)C
Procedure, shortened: as §1

[14] = compound: CC1=C(C=C(C=C1)NC(=O)C2=CC(=CC=C2)C(C)(C)C#N)NC3=CC4=C(C=C3)N=CN(C4=O)C
Procedure, shortened: as §1

[15] = compound: CC1=C(C=C(C=C1)NC(=O)C2=CC(=CC=C2)N(C)C)NC(=O)C3=CC=C(C=C3)O
Procedure, shortened: as §1

[16] = compound: CC1=CC=C(C=C1)SC2=C3C=C(SC3=CN=C2)C(=O)N
Procedure, shortened: as §1

Measured: log2 fold change

SCAMP2 (UniProt O15127)
inactive: erlotinib -0.054 | [1] 0.061 | [2] 0.03 | [3] -0.018 | [4] -0.013 | [5] 0.009 | [6] -0.02 | [7] -0.097 | [8] 0.111 | IRAK-1-4 Inhibitor I 0.029 | ibrutinib -0.019 | [9] -0.034 | ralimetinib -0.061 | [10] -0.103 | [11] -0.017 | [12] 0.027 | [13] -0.029 | [14] 0.053 | [15] -0.054 | [16] -0.056

SAMM50 (UniProt Q9Y512)
inactive: erlotinib 0.002 | [1] 0.021 | [2] -0.036 | [3] -0.003 | [4] 0.005 | [5] 0.005 | [6] -0.081 | [7] -0.009 | [8] 0.001 | IRAK-1-4 Inhibitor I 0.047 | ibrutinib -0.044 | [9] -0.004 | ralimetinib 0 | [10] -0.058 | [11] 0.009 | [12] 0.013 | [13] 0.004 | [14] 0.038 | [15] 0.013 | [16] -0.011

SASS6 (UniProt Q6UVJ0)
inactive: erlotinib 0.024 | [1] 0.016 | [2] 0.028 | [3] -0.019 | [4] -0.009 | [5] 0.015 | [6] -0.023 | [7] -0.012 | [8] 0 | IRAK-1-4 Inhibitor I -0.021 | ibrutinib -0.006 | [9] 0.023 | ralimetinib -0.006 | [10] -0.056 | [11] -0.017 | [12] 0.024 | [13] 0.007 | [14] 0.015 | [15] 0.001 | [16] -0.021

SEC11A (UniProt P67812)
inactive: erlotinib 0.021 | [1] 0.006 | [2] -0.046 | [3] 0.013 | [4] 0.002 | [5] -0.016 | [6] -0.03 | [7] -0.05 | [8] -0.006 | IRAK-1-4 Inhibitor I -0.001 | ibrutinib -0.032 | [9] -0.015 | ralimetinib -0.004 | [10] -0.025 | [11] -0.045 | [12] 0.032 | [13] 0.034 | [14] 0.012 | [15] 0.019 | [16] -0.021

SENP5 (UniProt Q96HI0)
inactive: erlotinib -0.001 | [1] -0.053 | [2] 0 | [3] -0.077 | [4] 0.039 | [5] 0.05 | [6] 0.068 | [7] -0.056 | [8] -0.134 | IRAK-1-4 Inhibitor I 0.018 | ibrutinib 0.008 | [9] 0.02 | ralimetinib -0.094 | [10] -0.006 | [11] -0.003 | [12] -0.056 | [13] 0.033 | [14] 0.026 | [15] 0.015 | [16] -0.07

SCP2 (UniProt P22307)
inactive: erlotinib -0.009 | [1] 0.055 | [2] 0.032 | [3] 0.001 | [4] -0.011 | [5] 0.014 | [6] 0 | [7] -0.017 | [8] 0.021 | IRAK-1-4 Inhibitor I 0.018 | ibrutinib 0.024 | [9] -0.016 | ralimetinib 0.005 | [10] -0.009 | [11] -0.009 | [12] -0.008 | [13] -0.007 | [14] 0.019 | [15] -0.017 | [16] -0.018

SAR1A (UniProt Q9NR31)
inactive: erlotinib -0.268 | [1] -0.112 | [2] 0.05 | [3] -0.019 | [4] -0.063 | [5] -0.056 | [6] 0.048 | [7] -0.08 | [8] 0.001 | IRAK-1-4 Inhibitor I -0.029 | ibrutinib -0.082 | [9] -0.105 | ralimetinib 0.027 | [10] -0.028 | [11] 0.026 | [12] 0.163 | [13] -0.042 | [14] 0.021 | [15] -0.045 | [16] 0.112

SEMA4C (UniProt Q9C0C4)
inactive: erlotinib -0.005 | [1] -0.037 | [2] 0.034 | [3] -0.012 | [4] 0.027 | [5] -0.008 | [6] -0.079 | [7] -0.038 | [8] 0.021 | IRAK-1-4 Inhibitor I 0.086 | ibrutinib 0.023 | [9] -0.008 | ralimetinib -0.064 | [10] -0.047 | [11] -0.032 | [12] 0.007 | [13] -0.032 | [14] -0.017 | [15] 0.005 | [16] -0.013

SEPTIN2 isoform 2 (UniProt Q15019)
inactive: erlotinib 0.022 | [1] -0.043 | [2] 0.018 | [3] -0.001 | [4] 0.003 | [5] 0.008 | [6] -0.003 | [7] -0.001 | [8] 0.004 | IRAK-1-4 Inhibitor I 0.013 | ibrutinib -0.014 | [9] -0.002 | ralimetinib 0.003 | [10] -0.016 | [11] -0.011 | [12] -0.041 | [13] 0.003 | [14] 0.014 | [15] -0.013 | [16] -0.001

SEC22B (UniProt O75396)
inactive: erlotinib 0.025 | [1] 0.023 | [2] -0.002 | [3] -0.038 | [4] -0.005 | [5] -0.016 | [6] 0.001 | [7] -0.002 | [8] 0.038 | IRAK-1-4 Inhibitor I -0.046 | ibrutinib 0.02 | [9] -0.019 | ralimetinib -0.009 | [10] -0.005 | [11] -0.003 | [12] 0.02 | [13] -0.031 | [14] -0.001 | [15] -0.03 | [16] 0.025

SCCPDH (UniProt Q8NBX0)
inactive: erlotinib -0.213 | [1] -0.055 | [2] -0.027 | [3] 0.083 | [4] -0.243 | [5] 0.052 | [6] 0.185 | [7] -0.03 | [8] 0.026 | IRAK-1-4 Inhibitor I 0.016 | ibrutinib 0.155 | [9] -0.042 | ralimetinib 0.083 | [10] 0.112 | [11] 0.122 | [12] -0.017 | [13] -0.068 | [14] 0.055 | [15] -0.098 | [16] 0.187

SDHAF3 (UniProt Q9NRP4)
inactive: erlotinib -0.042 | [1] 0.035 | [2] -0.026 | [3] -0.015 | [4] -0.005 | [5] -0.038 | [6] 0.05 | [7] -0.014 | [8] 0.007 | IRAK-1-4 Inhibitor I 0.028 | ibrutinib -0.042 | [9] 0.011 | ralimetinib 0.022 | [10] -0.048 | [11] -0.032 | [12] -0.04 | [13] 0.065 | [14] -0.043 | [15] -0.025 | [16] 0.029

SDCBP (UniProt O00560)
inactive: erlotinib -0.049 | [1] 0.05 | [2] 0 | [3] -0.005 | [4] 0.026 | [5] 0.021 | [6] 0.099 | [7] -0.037 | [8] -0.006 | IRAK-1-4 Inhibitor I 0.047 | ibrutinib 0.024 | [9] -0.004 | ralimetinib -0.018 | [10] 0.059 | [11] 0.035 | [12] 0.008 | [13] 0.006 | [14] 0.039 | [15] -0.021 | [16] -0.003

SAMHD1 (UniProt Q9Y3Z3)
inactive: erlotinib 0.035 | [1] 0.036 | [2] 0.004 | [3] 0.015 | [4] 0.005 | [5] -0.021 | [6] -0.057 | [7] -0.065 | [8] 0.035 | IRAK-1-4 Inhibitor I 0.013 | ibrutinib -0.009 | [9] -0.022 | ralimetinib 0.056 | [10] -0.004 | [11] -0.002 | [12] 0.003 | [13] -0.017 | [14] 0.006 | [15] 0.067 | [16] -0.003

SAMD4B (UniProt Q5PRF9)
inactive: erlotinib 0.054 | [1] -0.007 | [2] 0.014 | [3] 0.002 | [4] -0.022 | [5] 0.086 | [6] 0.024 | [7] 0.025 | [8] 0.055 | IRAK-1-4 Inhibitor I -0.01 | ibrutinib 0.008 | [9] -0.008 | ralimetinib 0.026 | [10] 0 | [11] 0.009 | [12] 0.046 | [13] 0.03 | [14] 0.044 | [15] 0.008 | [16] -0.007

Three neighbouring records from above, quoted:
SEC22B (UniProt O75396)
inactive: erlotinib 0.025 | [1] 0.023 | [2] -0.002 | [3] -0.038 | [4] -0.005 | [5] -0.016 | [6] 0.001 | [7] -0.002 | [8] 0.038 | IRAK-1-4 Inhibitor I -0.046 | ibrutinib 0.02 | [9] -0.019 | ralimetinib -0.009 | [10] -0.005 | [11] -0.003 | [12] 0.02 | [13] -0.031 | [14] -0.001 | [15] -0.03 | [16] 0.025

SCCPDH (UniProt Q8NBX0)
inactive: erlotinib -0.213 | [1] -0.055 | [2] -0.027 | [3] 0.083 | [4] -0.243 | [5] 0.052 | [6] 0.185 | [7] -0.03 | [8] 0.026 | IRAK-1-4 Inhibitor I 0.016 | ibrutinib 0.155 | [9] -0.042 | ralimetinib 0.083 | [10] 0.112 | [11] 0.122 | [12] -0.017 | [13] -0.068 | [14] 0.055 | [15] -0.098 | [16] 0.187

SDHAF3 (UniProt Q9NRP4)
inactive: erlotinib -0.042 | [1] 0.035 | [2] -0.026 | [3] -0.015 | [4] -0.005 | [5] -0.038 | [6] 0.05 | [7] -0.014 | [8] 0.007 | IRAK-1-4 Inhibitor I 0.028 | ibrutinib -0.042 | [9] 0.011 | ralimetinib 0.022 | [10] -0.048 | [11] -0.032 | [12] -0.04 | [13] 0.065 | [14] -0.043 | [15] -0.025 | [16] 0.029

More entries.

SELENBP1 isoform 4 (UniProt Q13228)
inactive: erlotinib -0.015 | [1] -0.048 | [2] 0.023 | [3] -0.006 | [4] 0 | [5] -0.012 | [6] 0.029 | [7] 0.015 | [8] 0.02 | IRAK-1-4 Inhibitor I 0.014 | ibrutinib 0.01 | [9] 0.007 | ralimetinib -0.011 | [10] -0.016 | [11] -0.006 | [12] -0.003 | [13] -0.007 | [14] -0.002 | [15] -0.019 | [16] -0.01
